For three molecules, binding results are on record in paper PMC13486994.

Amino acid sequences for entries named in this document (tags omitted).
UniProt Q9HCE7: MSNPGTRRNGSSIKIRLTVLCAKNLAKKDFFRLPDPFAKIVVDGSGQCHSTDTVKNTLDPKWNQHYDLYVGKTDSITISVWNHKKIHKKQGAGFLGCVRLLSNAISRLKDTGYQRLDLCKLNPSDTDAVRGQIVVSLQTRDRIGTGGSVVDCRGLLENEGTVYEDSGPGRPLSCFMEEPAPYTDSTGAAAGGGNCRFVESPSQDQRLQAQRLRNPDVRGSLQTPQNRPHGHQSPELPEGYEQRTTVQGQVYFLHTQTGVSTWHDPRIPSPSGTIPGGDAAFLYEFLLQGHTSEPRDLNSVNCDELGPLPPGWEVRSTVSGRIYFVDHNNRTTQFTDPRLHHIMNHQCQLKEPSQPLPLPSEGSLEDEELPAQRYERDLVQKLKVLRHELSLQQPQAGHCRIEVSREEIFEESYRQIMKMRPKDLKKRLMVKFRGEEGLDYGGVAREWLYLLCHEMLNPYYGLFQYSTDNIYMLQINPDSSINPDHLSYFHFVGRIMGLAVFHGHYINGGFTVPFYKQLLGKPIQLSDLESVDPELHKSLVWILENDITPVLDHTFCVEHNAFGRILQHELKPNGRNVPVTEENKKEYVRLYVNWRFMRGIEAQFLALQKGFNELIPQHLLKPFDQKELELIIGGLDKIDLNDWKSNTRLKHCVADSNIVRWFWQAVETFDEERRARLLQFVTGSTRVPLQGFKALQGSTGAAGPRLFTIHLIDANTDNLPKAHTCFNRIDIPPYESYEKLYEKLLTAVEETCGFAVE
UniProt Q9BXK1: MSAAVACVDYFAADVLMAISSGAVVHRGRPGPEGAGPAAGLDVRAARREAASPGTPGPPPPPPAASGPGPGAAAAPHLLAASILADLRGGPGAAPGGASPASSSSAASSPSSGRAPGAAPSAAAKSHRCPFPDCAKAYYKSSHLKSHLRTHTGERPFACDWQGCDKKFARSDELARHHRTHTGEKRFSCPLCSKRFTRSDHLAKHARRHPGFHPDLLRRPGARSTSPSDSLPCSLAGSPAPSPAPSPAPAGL

Results are given in words; binding and its absence hold for the method and conditions named. In cells and extracts the contact can be indirect. Some results given as binding are weak or reduced against the parent protein; the word gives no strength.

The target of experiment [1] is SMAD-specific E3 ubiquitin protein ligase 1 (SMURF1) (human (in lysate of human GC cells)) (UniProt Q9HCE7). The experiment can be described thus: co-IP; co-immunoprecipitation from GC cell lysates; antibodies on protein A/G magnetic beads, 4 °C, 12 h; Western blot (Fig. S4C); bait and cell line not given.
Experiment [2] addresses T1, ring finger protein 180 (RNF180) (human (in lysate of human GC cells)) (UniProt Q86T96).
T1 sequence: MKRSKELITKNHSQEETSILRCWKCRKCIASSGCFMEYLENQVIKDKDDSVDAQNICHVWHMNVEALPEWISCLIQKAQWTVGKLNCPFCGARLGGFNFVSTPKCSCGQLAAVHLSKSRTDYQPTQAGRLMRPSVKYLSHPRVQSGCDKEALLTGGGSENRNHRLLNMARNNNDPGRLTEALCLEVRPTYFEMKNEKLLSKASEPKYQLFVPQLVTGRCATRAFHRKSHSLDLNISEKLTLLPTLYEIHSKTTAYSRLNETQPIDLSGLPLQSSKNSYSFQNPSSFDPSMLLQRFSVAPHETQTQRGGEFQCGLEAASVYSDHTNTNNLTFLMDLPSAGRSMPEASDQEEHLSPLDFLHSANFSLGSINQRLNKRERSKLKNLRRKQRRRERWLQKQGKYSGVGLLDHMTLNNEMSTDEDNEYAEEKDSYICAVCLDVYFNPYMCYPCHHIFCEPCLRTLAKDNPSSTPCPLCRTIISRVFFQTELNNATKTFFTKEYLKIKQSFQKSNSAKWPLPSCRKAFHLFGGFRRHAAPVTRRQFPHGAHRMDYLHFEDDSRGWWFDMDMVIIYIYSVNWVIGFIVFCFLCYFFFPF
Described as above.

The target in experiment [3] is T2, phospholipase C beta 1 (PLCB1) (human (endogenous in AGS and MKN-74)) (UniProt Q9NQ66).
T2 sequence: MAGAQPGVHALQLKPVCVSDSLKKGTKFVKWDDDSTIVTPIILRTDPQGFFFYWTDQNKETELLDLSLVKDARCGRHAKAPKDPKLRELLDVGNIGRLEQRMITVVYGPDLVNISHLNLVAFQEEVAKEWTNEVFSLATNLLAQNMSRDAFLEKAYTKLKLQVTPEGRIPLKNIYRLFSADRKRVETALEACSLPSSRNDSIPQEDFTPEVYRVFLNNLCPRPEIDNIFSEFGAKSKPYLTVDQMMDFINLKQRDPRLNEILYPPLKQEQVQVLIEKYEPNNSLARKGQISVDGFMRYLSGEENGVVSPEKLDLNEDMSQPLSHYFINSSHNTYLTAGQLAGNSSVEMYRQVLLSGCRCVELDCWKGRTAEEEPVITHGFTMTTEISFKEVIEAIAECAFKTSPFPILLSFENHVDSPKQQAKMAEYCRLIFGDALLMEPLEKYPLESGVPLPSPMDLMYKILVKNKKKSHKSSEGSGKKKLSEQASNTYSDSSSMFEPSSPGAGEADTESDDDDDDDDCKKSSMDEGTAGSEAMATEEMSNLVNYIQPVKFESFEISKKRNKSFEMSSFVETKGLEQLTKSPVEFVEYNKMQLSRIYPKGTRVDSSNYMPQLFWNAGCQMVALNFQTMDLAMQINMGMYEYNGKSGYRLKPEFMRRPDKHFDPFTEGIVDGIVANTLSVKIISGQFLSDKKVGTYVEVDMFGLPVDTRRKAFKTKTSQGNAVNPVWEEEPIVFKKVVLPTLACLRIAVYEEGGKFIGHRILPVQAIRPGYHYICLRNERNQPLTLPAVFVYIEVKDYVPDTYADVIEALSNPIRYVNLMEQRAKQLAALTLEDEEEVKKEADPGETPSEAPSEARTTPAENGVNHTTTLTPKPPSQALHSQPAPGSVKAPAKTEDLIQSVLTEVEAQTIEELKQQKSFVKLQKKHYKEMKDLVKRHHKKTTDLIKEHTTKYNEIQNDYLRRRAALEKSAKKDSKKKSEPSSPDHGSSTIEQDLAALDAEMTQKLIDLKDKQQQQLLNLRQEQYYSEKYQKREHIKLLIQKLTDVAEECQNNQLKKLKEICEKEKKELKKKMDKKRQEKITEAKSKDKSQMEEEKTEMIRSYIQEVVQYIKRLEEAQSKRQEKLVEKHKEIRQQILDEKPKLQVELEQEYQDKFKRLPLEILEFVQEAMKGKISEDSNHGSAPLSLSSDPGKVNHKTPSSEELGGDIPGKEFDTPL
The experiment can be described thus: co-IP; reciprocal co-immunoprecipitation of endogenous proteins from whole-cell lysates of AGS and MKN-74 cells; antibodies on protein A/G magnetic beads, 4 °C, 12 h; Western blot. On the technique in general: In western blotting, separated proteins are transferred to a membrane and probed.

The target of experiment [4] is protein kinase C alpha (PRKCA) (human (endogenous in AGS and MKN-74)) (UniProt P17252). The experiment is described as above.

As for “Kruppel-like factor 16 (KLF16) (from UniProt Q9BXK1 1-252)”, the binding entry in experiment [1] and in experiment [2] was “binds” each time.

Take “protein kinase C alpha (PRKCA) (from UniProt P17252 1-672)”: the binding entry in experiment [3] is listed as “binds”.

B1: phospholipase C beta 1 (PLCB1) (protein, UniProt Q9NQ66 1-1216)
chain: T2 sequence
For B1, in experiment [4], the binding entry was “binds”.
